Assay results: publication PMC7791120
Results are given in words; binding and its absence hold for the method and conditions named. Binding seen in cells or lysates may run through a third protein. These calls come from enrichment with a bait or labelling near it, and not all partners need be listed.

The chains behind the UniProt entries cited, without tags or fusion partners. Residues count along the entry.
UniProt P09874: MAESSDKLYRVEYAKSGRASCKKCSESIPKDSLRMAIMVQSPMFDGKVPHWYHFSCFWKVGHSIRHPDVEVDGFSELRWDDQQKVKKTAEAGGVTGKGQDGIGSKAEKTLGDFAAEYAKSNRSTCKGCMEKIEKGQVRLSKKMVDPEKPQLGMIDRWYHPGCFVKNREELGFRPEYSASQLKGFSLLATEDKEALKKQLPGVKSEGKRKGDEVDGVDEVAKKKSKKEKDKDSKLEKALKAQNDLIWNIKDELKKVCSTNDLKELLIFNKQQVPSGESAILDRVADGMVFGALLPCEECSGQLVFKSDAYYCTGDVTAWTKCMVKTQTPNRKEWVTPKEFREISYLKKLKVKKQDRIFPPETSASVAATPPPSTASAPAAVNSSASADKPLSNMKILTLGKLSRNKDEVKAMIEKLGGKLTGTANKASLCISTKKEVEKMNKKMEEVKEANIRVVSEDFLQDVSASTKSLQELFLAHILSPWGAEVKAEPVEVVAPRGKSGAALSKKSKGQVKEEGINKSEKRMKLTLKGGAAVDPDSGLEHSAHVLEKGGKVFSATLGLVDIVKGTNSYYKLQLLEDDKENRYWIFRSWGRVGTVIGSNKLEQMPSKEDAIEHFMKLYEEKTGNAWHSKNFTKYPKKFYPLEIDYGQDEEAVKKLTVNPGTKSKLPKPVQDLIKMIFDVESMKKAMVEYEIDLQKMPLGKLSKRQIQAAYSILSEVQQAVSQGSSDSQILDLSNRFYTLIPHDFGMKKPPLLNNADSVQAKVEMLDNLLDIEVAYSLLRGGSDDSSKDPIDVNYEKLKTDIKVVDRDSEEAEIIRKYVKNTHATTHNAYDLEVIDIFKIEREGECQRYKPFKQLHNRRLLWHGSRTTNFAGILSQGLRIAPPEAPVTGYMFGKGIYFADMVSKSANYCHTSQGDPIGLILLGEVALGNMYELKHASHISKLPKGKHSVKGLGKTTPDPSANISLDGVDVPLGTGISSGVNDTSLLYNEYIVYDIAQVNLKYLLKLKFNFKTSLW
UniProt P11021, residues 19-654: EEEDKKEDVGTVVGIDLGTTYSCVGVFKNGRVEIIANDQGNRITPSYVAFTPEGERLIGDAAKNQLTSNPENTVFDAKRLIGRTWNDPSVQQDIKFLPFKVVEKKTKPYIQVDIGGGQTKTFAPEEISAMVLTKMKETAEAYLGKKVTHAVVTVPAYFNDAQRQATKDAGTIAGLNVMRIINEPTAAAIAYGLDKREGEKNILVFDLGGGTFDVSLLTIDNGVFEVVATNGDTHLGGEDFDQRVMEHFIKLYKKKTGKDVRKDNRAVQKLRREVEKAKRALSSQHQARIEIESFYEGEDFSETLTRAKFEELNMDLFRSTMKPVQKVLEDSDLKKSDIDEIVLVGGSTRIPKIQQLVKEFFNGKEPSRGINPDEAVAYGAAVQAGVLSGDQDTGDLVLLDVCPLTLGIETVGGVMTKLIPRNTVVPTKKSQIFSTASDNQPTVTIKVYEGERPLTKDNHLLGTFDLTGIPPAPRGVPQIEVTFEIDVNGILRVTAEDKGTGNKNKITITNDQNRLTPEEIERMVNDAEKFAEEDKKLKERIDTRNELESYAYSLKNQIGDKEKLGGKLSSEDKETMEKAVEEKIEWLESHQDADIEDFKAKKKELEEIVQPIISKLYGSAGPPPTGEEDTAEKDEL

Target: T1, Tribbles homolog 2 (TRIB2), endogenous (human (endogenous in Bel-7402)) (UniProt Q92519)
T1 sequence: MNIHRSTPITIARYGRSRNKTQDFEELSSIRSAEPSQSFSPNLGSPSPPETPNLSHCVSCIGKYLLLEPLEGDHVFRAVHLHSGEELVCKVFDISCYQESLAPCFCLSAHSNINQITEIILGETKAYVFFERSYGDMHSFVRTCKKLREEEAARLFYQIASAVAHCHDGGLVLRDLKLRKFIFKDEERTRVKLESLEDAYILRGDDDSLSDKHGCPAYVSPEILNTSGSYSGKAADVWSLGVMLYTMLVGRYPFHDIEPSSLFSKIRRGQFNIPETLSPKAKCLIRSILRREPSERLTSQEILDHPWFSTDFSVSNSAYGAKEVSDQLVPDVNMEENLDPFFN
Experiment: affinity purification with mass spectrometry; immunoprecipitates of Bel-7402 lysates with anti-TRIB2 antibodies (ab117981), Nano-LC ESI-QTOF-MS, three independent biological replicates

PARP1, endogenous (from UniProt P09874 1-1014)
binding: binds

GRP78, endogenous (from UniProt P11021 19-654)
binding: binds
